Data on one substance can be found in patent US20060083742A1.

This experiment addresses GFP-tagged Bcl-2 (human) (UniProt P10415). Briefly: co-immunoprecipitation from co-transfected Cos-1 cells (Y13-259 IP, anti-GFP blot).

No constants are given. Whether binding was seen depends on the method and setting. Binding seen in cells or lysates may run through a third protein. Some results given as binding are weak or reduced against the parent protein; the word gives no strength.

Regarding “HA-tagged K-Ras12V (from UniProt P01116 1-185)”, the binding entry is on record as “binds”.
